PubChem BioAssay AID1259308, NCATS, 2017

Test: 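Candidate targets for better recombinant protein yield in mammalian cells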 (primary screen)
Cells: human HEK293 embryonic kidney cells stably expressing firefly luciferase (HEK-CMV-Luc2-Hygro)
Reagents: single siRNA against human genes, 0.8 pmol siRNA per well
Time to read-out: 72 h
Measured: 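Luciferase light (ONE-Glo) measured on one replicate plate set and viability (CellTiter-Glo) on the other, scaled to a negative control siRNA, with robust z-scores and luciferase per cell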
Reading the numbers: total luciferase, z-score and total luciferase, % of control: higher = more reporter protein produced
Rule for the call: 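Active when the median/MAD z-score for overall luciferase is greater than 3; a gene was taken forward for validation with new siRNAs if at least two of its three siRNAs passed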
Meaning of the calls: active = raised luciferase; inactive = no rise
The whole screen tested about 59,000 reagents; below is a random part of them. About 1,510 of all reagents (2.6%) count as active. 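Calls use total luciferase alone and ignore viability, so some active siRNAs may act by altering cell number.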 Entries without a mark were called inactive. The numbers tell different reagents against one gene apart. Not all columns of the deposit are shown.

GPR173 #1 | total luciferase, z-score = -1.04; total luciferase, % of control = 61.2
GPR173 #2 | total luciferase, z-score = -0.436; total luciferase, % of control = 73.2
GPR173 #3 | total luciferase, z-score = 1.48; total luciferase, % of control = 111
NES #1 | total luciferase, z-score = 1.3; total luciferase, % of control = 108
NES #2 | total luciferase, z-score = -0.824; total luciferase, % of control = 65.5
NES #3 | total luciferase, z-score = 0.981; total luciferase, % of control = 101
NOLC1 #1 | total luciferase, z-score = 1.07; total luciferase, % of control = 103
NOLC1 #2 | total luciferase, z-score = -0.0531; total luciferase, % of control = 80.8
NOLC1 #3 | total luciferase, z-score = 0.307; total luciferase, % of control = 88
DIAPH2 #1 | total luciferase, z-score = -0.651; total luciferase, % of control = 68.9
DIAPH2 #2 | total luciferase, z-score = -1.1; total luciferase, % of control = 60
DIAPH2 #3 | total luciferase, z-score = -0.561; total luciferase, % of control = 70.7
ABCC9 #1 | total luciferase, z-score = 2.42; total luciferase, % of control = 130
ABCC9 #2 | total luciferase, z-score = 0.32; total luciferase, % of control = 88.3
ABCC9 #3 | total luciferase, z-score = -0.595; total luciferase, % of control = 70.1
OR1D4 #1 | total luciferase, z-score = 0.519; total luciferase, % of control = 92.2
OR1D4 #2 | total luciferase, z-score = 1.3; total luciferase, % of control = 108
OR1D4 #3 | total luciferase, z-score = -0.706; total luciferase, % of control = 67.8
ESRRB #1 | total luciferase, z-score = -0.992; total luciferase, % of control = 62.2
ESRRB #2 | total luciferase, z-score = -0.22; total luciferase, % of control = 77.5
ESRRB #3 | total luciferase, z-score = -0.567; total luciferase, % of control = 70.6
